Source: PubChem BioAssay AID445 (National Center for Advancing Translational Sciences (NCATS), 2006)
The list shows a part of the results. Further columns of the screen follow, without active or inactive calls. The list favours compounds with an active or inconclusive main result. The note in brackets gives the kind of curve behind each potency; many fits are weak.

assay: IkB Signaling; settings: ABC-DLBCL IkBa-CBG/CBR dual luciferase ratio (green luciferase fused to IkBa over red control in OCI-Ly3 lymphoma cells), 4 h; measured here: control luc red channel unless noted
Procedure, shortened: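 Curves were fitted separately to fusion (green), unfused (red) and ratio luminescence, then classed by r2, magnitude and activity. Cells: OCI-Ly3, 4 h compound plus doxycycline at 37C; 10 uM MG-132 defined full response.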

Compound | AC50
CCC1CCc2c(sc(NC(=O)C3c4ccccc4Oc4ccccc43)c2C(=O)OC)C1 (stereo not drawn) | 7.94 µM [falling, full curve, poor fit]
O=C(COc1ccc(Cl)cc1)Nc1ccc(-c2nc3cc(Cl)ccc3o2)c(O)c1 | 0.158 µM [rising, full curve]
CCCNC(=O)CN1C(=O)c2c(c3ccccc3n2C)C1c1ccc(OC)cc1 (stereo not drawn) | 39.8 µM [falling, single point]
COc1ccc(CNC(=O)c2cc3oc4ccccc4c3n2C)cc1OC | 25.1 µM [falling, single point]
CCc1ccc(S(=O)(=O)c2nnn3c2nc(N2CCC(C(N)=O)CC2)c2cc(Cl)ccc23)cc1 | 20 µM [falling, single point]
CCc1ccc(NC(=O)C2CCN(S(=O)(=O)c3c(C)noc3C)CC2)cc1 | 31.6 µM [falling, single point]
Cn1c(=O)c2cc(C(=O)Nc3cccc(C#N)c3)sc2c2ccccc21 | 0.631 µM [falling, full curve]
CCOc1ccc2nc(SCC(=O)c3cccs3)sc2c1 | 31.6 µM [falling, single point]
COC(=O)c1ccc(NC(=O)NC(C)c2c(-n3cccc3)sc(C)c2C)cc1 (stereo not drawn) | 20 µM [falling, single point]
COc1ccc(Cl)cc1NC(=O)c1sc2nc(-c3ccc(OC)c(OC)c3)ccc2c1N | 0.0631 µM [rising, full curve, poor fit]
COc1ccc(C(CC(=O)Nc2nccs2)n2cccc2)cc1 (stereo not drawn) | 15.8 µM [falling, partial curve]
NC(=O)c1c(N)sc2c1CCCCC2 | 12.6 µM [falling, partial curve]
CCOc1ccc(NC(=O)c2c(NCc3cccs3)sc3c2CCCCC3)cc1 | 15.8 µM [falling, partial curve]
COC(=O)c1scc(-c2ccccc2)c1S(=O)(=O)Nc1ccc(C)c(Cl)c1 | 31.6 µM [falling, single point]
O=C(CSc1ncn(-c2ccccc2)n1)c1cccs1 | 10 µM [falling, partial curve]
Cc1cc(NC(=O)COC(=O)c2c(C)nn(-c3ccccc3)c2C)no1 | 7.94 µM [falling, partial curve]
Cc1ccnc2nc(NC(=O)c3ccccc3Cl)nn12 | 15.8 µM [falling, partial curve]
Cc1cccc(N(CC(=O)N(C)Cc2ccccc2)S(=O)(=O)c2ccccc2)c1C | 25.1 µM [falling, single point]
O=C(NCCc1ccc(Cl)cc1)c1ccc(CSCc2ccc(Cl)cc2)o1 | 15.8 µM [falling, partial curve]
Clc1ccccc1-c1nnc(SCc2nc(-c3ccccc3)no2)n1-c1ccccc1 | 12.6 µM [falling, partial curve]
CCc1ccccc1NC(=O)Cn1c(=O)n(CCc2ccccc2)c(=O)c2ccccc21 | 3.98 µM [falling, single point]

Compound | AC50
O=C(Nc1ccc2nc(SCC(=O)N3CCOCC3)sc2c1)c1cccc(F)c1 | 15.8 µM [falling, partial curve]
CCOC(=O)N1CCN(S(=O)(=O)N2CCCC(C(=O)NCc3ccc(OC)cc3OC)C2)CC1 (stereo not drawn) | 3.16 µM [falling, single point]
Cn1c(C(=O)N2CCC(C(=O)N3CCN(c4ccccc4)CC3)CC2)cc2sccc21 | 31.6 µM [falling, single point]
Cc1ccc(CNC(=O)c2c[nH]n3c(=O)c(Cc4ccc(F)cc4Cl)c(C)nc23)cc1 | 7.94 µM [falling, full curve]
Cc1nnc(N2CCN(c3cccc(C(F)(F)F)c3)CC2)c2c1nnn2Cc1ccccc1 | 25.1 µM [falling, partial curve]
Cc1noc2ncnc(NCc3ccc(Cl)cc3)c12 | 15.8 µM [falling, partial curve]
Cc1ccc(-c2cc(NC(=O)C(C)Oc3ccccc3F)on2)cc1 (stereo not drawn) | 1 µM [falling, partial curve]
Cc1cc(NC(=O)C2CCCN(S(=O)(=O)c3cn(C)cn3)C2)ccc1Br (stereo not drawn) | 25.1 µM [falling, partial curve, poor fit]
COc1ccc(NC(=O)C(=O)NCc2ccco2)c(OC)c1 | 12.6 µM [falling, partial curve]
O=C(Nc1ccc(C(=O)OCc2cc(=O)n3ccsc3n2)cc1)c1cccc(F)c1 | 0.251 µM [rising, full curve]
COc1ccc(Nc2c3c(nc4ccc(NC(=O)c5cc(Cl)ccc5OC)cc24)CCCC3)cc1OC | 7.94 µM [falling, full curve]
COc1ccc(OC)c(CNC(=O)C2CCN(S(=O)(=O)c3ccc4[nH]c(=O)oc4c3)CC2)c1 | 1.26 µM [falling, full curve, poor fit]
Cc1ccc(NCc2nnc(SCC(=O)Nc3ncc(C)s3)n2CC2CCCO2)c(C)c1 (stereo not drawn) | 12.6 µM [falling, partial curve]
O=C(Nc1nc(-c2ccco2)c(-c2ccco2)s1)C1CC(=O)N(c2ccc3c(c2)OCCO3)C1 (stereo not drawn) | 39.8 µM [rising, single point] [measured here: IkB-luc green channel]
Oc1c(C(c2ccc(Cl)cc2Cl)N2CCN(Cc3ccccc3)CC2)sc2nc(-c3ccco3)nn12 (stereo not drawn) | 39.8 µM [falling, single point]
O=C=Nc1ccc(Cl)c(Cl)c1 | 5.01 µM [falling, full curve]
COCCNC(=O)CCCn1c(SCc2ccccc2C)nc2c(sc3ccccc32)c1=O | 10 µM [falling, partial curve]
CCn1cc(/C=C(\NC(=O)c2ccccc2Cl)C(=O)NCCCn2ccnc2)c2ccccc21 | 12.6 µM [falling, partial curve]
Cc1ccc(C2N3CC4(C)CN2CC(c2ccccc2)(C3)C4=O)cc1 (stereo not drawn) | 31.6 µM [falling, partial curve]
Cc1ccc(CNC(=O)c2ccc(N3Cc4ccccc4Oc4ncccc43)s2)cc1 | 3.98 µM [falling, partial curve]
CCOc1ccc(C(=O)Nc2ccc(C(=O)OCc3cc(=O)n4c(C)csc4n3)cc2)cc1 | 31.6 µM [falling, single point]

Compound | AC50
O=C(c1ccccc1C(=O)N1CCN(c2ccccc2)CC1)N1CCN(c2ccccc2)CC1 | 7.94 µM [falling, partial curve]
CCC(=O)Nc1ccc(-c2nc3ncccc3o2)cc1C | 1 µM [rising, full curve]
CC1CCN(C(=O)c2cc(-c3ccc(Cl)c(Cl)c3)on2)CC1 | 0.01 µM [falling, full curve]
Cc1ccc2c(c1)c1c(c(=O)n(-c3cccc(Cl)c3)c(=O)n1CC(N)=O)n2C | 0.501 µM [rising, partial curve]
CCCc1cc(=O)oc2cc(C)c3c(C)coc3c12 | 2.51 µM [rising, full curve]
COc1ccc(OCC(=O)Nc2cc(-c3nc4ccccc4o3)ccc2Cl)cc1 | 1.58 µM [rising, partial curve]
Cc1ccc(NC(=O)CN2C(=O)c3ccccc3Sc3ccc(C(=O)N4CCOCC4)cc32)cc1C | 7.94 µM [falling, full curve]
CC1CCN(C(=O)c2ccc(C(=O)N3CCC(C)CC3)cc2)CC1 | 158 nM [rising, full curve, poor fit] [measured here: IkB-luc green channel]
O=C1Nc2ccccc2C1Cc1ccc(Br)cc1 (stereo not drawn) | 3.98 µM [rising, partial curve, poor fit]
Oc1ccccc1Cn1c(-c2ccccc2O)nc2ccccc21 | 20 µM [falling, partial curve]
Cc1ccccc1OCCSc1nc2ccc(NC(=O)c3ccco3)cc2s1 | 31.6 µM [falling, single point]
O=C(CSc1nc(=O)n(Cc2ccccn2)c2c1CCC2)Nc1cccc(Cl)c1 | 25.1 µM [falling, partial curve]
COCCNC(=O)CSc1nc(-c2ccc(C)cc2)[nH]c1-c1ccc(OC)cc1 | 31.6 µM [falling, single point]
O=C(Nc1ccc(Cl)cc1F)c1cc(S(=O)(=O)NC2CCCCCC2)ccc1F | 0.794 µM [falling, full curve]
Cc1cccc(NC(=O)c2oc3ccccc3c2NC(=O)Cc2coc3cc(C)cc(C)c23)c1 | 15.8 µM [falling, single point]
Cc1ccccc1OCC(=O)Nc1ccccc1C(=O)OCc1cc(=O)n2nc(C3CC3)sc2n1 | 2.51 µM [falling, full curve]
Cc1nc2ncnn2c(C)c1CCC(=O)NC(C)c1ccc2c(c1)OCCO2 (stereo not drawn) | 5.01 µM [falling, partial curve]
COc1ccc(Cl)cc1NC(=O)CSc1nc(=O)[nH]c2c1CCC2 | 39.8 µM [falling, single point]
COc1cccc(NC(=O)CSc2nnc(-c3cc(-c4ccccn4)nc4ccccc34)o2)c1 | 10 µM [falling, partial curve]
Cc1cc(NC(=O)c2cc(-c3ccc(F)cc3)on2)nn1Cc1ccc(Cl)cc1 | 6.31 µM [falling, partial curve]
Cc1ccc2c(CC(=O)Nc3ccc(S(=O)(=O)N4CCCC(C)C4)cc3)coc2c1 (stereo not drawn) | 25.1 µM [falling, partial curve]
